Record: PubChem BioAssay AID1259308 (NCATS, 2017)
Aim: 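Genes whose loss raises luciferase production in HEK293 cells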 (primary screen). System: human HEK293 embryonic kidney cells stably expressing firefly luciferase (HEK-CMV-Luc2-Hygro). Reagents: single siRNA against human genes, 0.8 pmol siRNA per well. Duration: 72 h. Measured: 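Luciferase light (ONE-Glo) measured on one replicate plate set and viability (CellTiter-Glo) on the other, scaled to a negative control siRNA, with robust z-scores and luciferase per cell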. Scale: total luciferase, z-score and total luciferase, % of control: higher = more reporter protein produced; luciferase per cell, z-score: higher = more reporter output per viable cell; viable cells, % of control: higher = more viable cells. Rule for the call: 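An siRNA counts as active if its total luciferase robust z-score exceeds 3; genes with two or more such siRNAs out of three were retested with fresh siRNAs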. Calls: active = raised luciferase; inactive = no rise.
Here is an unselected part of about 59,000 deposited reagents. About 1,510 of all reagents (2.6%) were called active. 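Calls use total luciferase alone and ignore viability, so some active siRNAs may act by altering cell number.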 Entries without a mark were called inactive. Reagents against one gene are numbered here.

no.	Target gene	siRNA no.	total luciferase, z-score	total luciferase, % of control	luciferase per cell, z-score	viable cells, % of control
1	YDJC (YdjC chitooligosaccharide deacetylase homolog)	1	-0.0594	80.7	-0.356	99
2	YDJC (YdjC chitooligosaccharide deacetylase homolog)	2	-0.982	62.4	-1.58	106
3	YDJC (YdjC chitooligosaccharide deacetylase homolog)	3	-2.12	39.8	0.0422	44
4	BOC (BOC cell adhesion associated, oncogene regulated)	1	2.08	123	1.93	82.8
5	BOC (BOC cell adhesion associated, oncogene regulated)	2	0.742	96.6	2.11	62
6	BOC (BOC cell adhesion associated, oncogene regulated)	3	-0.445	73	-0.836	102
7	HRH1 (histamine receptor H1)	1	-0.109	79.7	-0.605	104
8	HRH1 (histamine receptor H1)	2	1.27	107	1.73	75.8
9	HRH1 (histamine receptor H1)	3	-1.46	52.9	-1.83	95.7
10	ITGA3 (integrin subunit alpha 3)	1	0.0478	82.8	0.0886	90.4
11	ITGA3 (integrin subunit alpha 3)	2	1.2	106	1.59	77.8
12	ITGA3 (integrin subunit alpha 3)	3	-0.58	70.3	-1.13	106
13	RCAN1 (regulator of calcineurin 1)	1	1.56	113	1.2	91.9
14	RCAN1 (regulator of calcineurin 1)	2	0.306	88	-0.741	119
15	RCAN1 (regulator of calcineurin 1)	3	3.26 (active)	147	2.42	86.8
16	AP5Z1 (adaptor related protein complex 5 subunit zeta 1)	1	0.0218	82.3	-0.573	107
17	AP5Z1 (adaptor related protein complex 5 subunit zeta 1)	2	3.86 (active)	159	3.41	72.3
18	AP5Z1 (adaptor related protein complex 5 subunit zeta 1)	3	-0.554	70.9	-0.124	81.8
19	MRPS18A (mitochondrial ribosomal protein S18A)	1	1.09	104	1.01	88.8
20	MRPS18A (mitochondrial ribosomal protein S18A)	2	0.786	97.5	-0.0103	109
21	MRPS18A (mitochondrial ribosomal protein S18A)	3	-1.09	60.1	-0.971	86.8
22	IL17B (interleukin 17B)	1	0.0286	82.5	0.000581	92.1
23	IL17B (interleukin 17B)	2	-0.0179	81.5	0.184	86.8
24	IL17B (interleukin 17B)	3	2.11	124	1.4	95.7

3 entries from above, arranged by “total luciferase, z-score”, lowest first:
Target gene	siRNA no.	total luciferase, z-score	total luciferase, % of control	luciferase per cell, z-score	viable cells, % of control
AP5Z1 (adaptor related protein complex 5 subunit zeta 1)	1	0.0218	82.3	-0.573	107
RCAN1 (regulator of calcineurin 1)	2	0.306	88	-0.741	119
RCAN1 (regulator of calcineurin 1)	3	3.26 (active)	147	2.42	86.8
